Laboratory results: US7615527B2, “Peptides which modulate blood coagulation and methods of use thereof” (Oregon Health & Science University, priority 2001, dated 2009)
Structures were worked out from names or drawings and are uncertain.

Molecular target: α-thrombin (Homo sapiens, UniProt P00734)
Assay: Competitive binding assay: α-thrombin binding to fluoresceinated γ′ 408-427 peptide
Conditions: 2 nM fluoresceinated peptide with 2 μM α-thrombin
Source text: Proteins, Peptides, and DNA Aptamers. Human α-thrombin was generously provided by Dr. John Fenton, II (New York State Department of Health, Albany, N.Y.) and Dr. Walter Kisiel (University of New Mexico, Albuquerque, N. Mex.). Human γ-thrombin was obtained from Haematologic Technologies, Inc. (Essex Junction, Vt.). Tyrosine-phosphorylated derivatives of peptides corresponding to the γ′ chain carboxyl terminus, […] (SEQ ID NO: 11), were obtained from Research Genetics, Inc. (Huntsville, Ala.) and GeneMed Synthesis, Inc. (South San Francisco, Calif.). The peptides were purified to >95% purity by HPLC, and their molecular weights were verified by mass spectrometry. Tyrosine-sulfated, amino-terminal acetylated hirudin peptide 53-65 was obtained from Bachem, Inc. (Torrance, Calif.) and tyrosine-sulfated hirudin peptide 54-65 was obtained from Sigma (St. Louis, Mo.). Single-stranded DNA aptamers 5′-GGT-TGG-TGT-GGT-TGG-3′ (SEQ ID NO: 5), referred to as HD1, and 5′-AGT-CCG-TGG-TAG-GGC-AGG-TTG-GGG-TGA-CT-3′ (SEQ ID NO: 6), referred to as HD22, were generously provided by Dr. Jeffrey I. Weitz (McMaster University, Hamilton, ONT, Canada). […] The amount of fibrinogen secreted during the labeling was determined using an ELISA described previously (10). […] To quantitate the binding of thrombin to the γ′ chain carboxyl terminus, 50 nM […]-Y (PO3)-DSL-Y (PO3)—PEDDL (SEQ ID NO: 10) peptide (Research Genetics), corresponding to the carboxyl terminal twenty amino acids of the γ′ chain, was labeled for 1 hour at 37° C. with a 5-fold molar excess of fluorescein succinimidyl ester (PanVera) in 100 mM potassium phosphate, pH 7.0 as per the manufacturer's protocol. […] Fluorescence polarization was measured following excitation at 488 nm and emission at 535 nm. […]
Competitive binding assays were performed by incubating 2 nM fluoresceinated peptide with 2 μM α-thrombin in the presence of the indicated concentrations of competing ligand. Fluorescence polarization was measured following excitation at 488 nm and emission at 535 nm.

| SMILES | Ki, competition for α-thrombin binding to fluoresceinated γ′ 408-427 peptide | Inhibition of α-thrombin binding to fluoresceinated γ′ 408-427 peptide (in words) |
| --- | --- | --- |
| CC(C)C[C@H](NC(=O)[C@H](CC(=O)O)NC(=O)[C@H](CC(=O)O)NC(=O)[C@H](CCC(=O)O)NC(=O)[C@@H]1CCCN1C(=O)[C@H](Cc1ccc(OP(=O)(O)O)cc1)NC(=O)[C@H](CC(C)C)NC(=O)[C@H](CO)NC(=O)[C@H](CC(=O)O)NC(=O)[C@H](Cc1ccc(O)cc1)NC(=O)[C@H](CCC(=O)O)NC(=O)[C@@H](NC(=O)[C@H](CCC(=O)O)NC(=O)[C@H](C)NC(=O)[C@@H]1CCCN1C(=O)[C@H](Cc1cnc[nH]1)NC(=O)[C@H](CCC(=O)O)NC(=O)[C@@H]1CCCN1C(=O)[C@H](CCCNC(=N)N)NC(=O)[C@@H](N)C(C)C)[C@@H](C)O)C(=O)O | not possible to obtain a statistically significant Ki value | – |
| CC(C)C[C@H](NC(=O)[C@H](CC(=O)O)NC(=O)[C@H](CC(=O)O)NC(=O)[C@H](CCC(=O)O)NC(=O)[C@@H]1CCCN1C(=O)[C@H](Cc1ccc(O)cc1)NC(=O)[C@H](CC(C)C)NC(=O)[C@H](CO)NC(=O)[C@H](CC(=O)O)NC(=O)[C@H](Cc1ccc(OP(=O)(O)O)cc1)NC(=O)[C@H](CCC(=O)O)NC(=O)[C@@H](NC(=O)[C@H](CCC(=O)O)NC(=O)[C@H](C)NC(=O)[C@@H]1CCCN1C(=O)[C@H](Cc1cnc[nH]1)NC(=O)[C@H](CCC(=O)O)NC(=O)[C@@H]1CCCN1C(=O)[C@H](CCCNC(=N)N)NC(=O)[C@@H](N)C(C)C)[C@@H](C)O)C(=O)O | not possible to obtain a statistically significant Ki value | slightly more effective than the peptide containing γ′Y(PO3)422 |
